Reference: doi:10.1101/438945
These are yes or no findings as the source states them, for the method shown. Binding seen in cells or lysates may run through a third protein. Some results given as binding are weak or reduced against the parent protein; the word gives no strength. Sequences can lack the tags named with a protein.

By UniProt entry, the sequences of proteins in these tests, tags left out.
UniProt P51587: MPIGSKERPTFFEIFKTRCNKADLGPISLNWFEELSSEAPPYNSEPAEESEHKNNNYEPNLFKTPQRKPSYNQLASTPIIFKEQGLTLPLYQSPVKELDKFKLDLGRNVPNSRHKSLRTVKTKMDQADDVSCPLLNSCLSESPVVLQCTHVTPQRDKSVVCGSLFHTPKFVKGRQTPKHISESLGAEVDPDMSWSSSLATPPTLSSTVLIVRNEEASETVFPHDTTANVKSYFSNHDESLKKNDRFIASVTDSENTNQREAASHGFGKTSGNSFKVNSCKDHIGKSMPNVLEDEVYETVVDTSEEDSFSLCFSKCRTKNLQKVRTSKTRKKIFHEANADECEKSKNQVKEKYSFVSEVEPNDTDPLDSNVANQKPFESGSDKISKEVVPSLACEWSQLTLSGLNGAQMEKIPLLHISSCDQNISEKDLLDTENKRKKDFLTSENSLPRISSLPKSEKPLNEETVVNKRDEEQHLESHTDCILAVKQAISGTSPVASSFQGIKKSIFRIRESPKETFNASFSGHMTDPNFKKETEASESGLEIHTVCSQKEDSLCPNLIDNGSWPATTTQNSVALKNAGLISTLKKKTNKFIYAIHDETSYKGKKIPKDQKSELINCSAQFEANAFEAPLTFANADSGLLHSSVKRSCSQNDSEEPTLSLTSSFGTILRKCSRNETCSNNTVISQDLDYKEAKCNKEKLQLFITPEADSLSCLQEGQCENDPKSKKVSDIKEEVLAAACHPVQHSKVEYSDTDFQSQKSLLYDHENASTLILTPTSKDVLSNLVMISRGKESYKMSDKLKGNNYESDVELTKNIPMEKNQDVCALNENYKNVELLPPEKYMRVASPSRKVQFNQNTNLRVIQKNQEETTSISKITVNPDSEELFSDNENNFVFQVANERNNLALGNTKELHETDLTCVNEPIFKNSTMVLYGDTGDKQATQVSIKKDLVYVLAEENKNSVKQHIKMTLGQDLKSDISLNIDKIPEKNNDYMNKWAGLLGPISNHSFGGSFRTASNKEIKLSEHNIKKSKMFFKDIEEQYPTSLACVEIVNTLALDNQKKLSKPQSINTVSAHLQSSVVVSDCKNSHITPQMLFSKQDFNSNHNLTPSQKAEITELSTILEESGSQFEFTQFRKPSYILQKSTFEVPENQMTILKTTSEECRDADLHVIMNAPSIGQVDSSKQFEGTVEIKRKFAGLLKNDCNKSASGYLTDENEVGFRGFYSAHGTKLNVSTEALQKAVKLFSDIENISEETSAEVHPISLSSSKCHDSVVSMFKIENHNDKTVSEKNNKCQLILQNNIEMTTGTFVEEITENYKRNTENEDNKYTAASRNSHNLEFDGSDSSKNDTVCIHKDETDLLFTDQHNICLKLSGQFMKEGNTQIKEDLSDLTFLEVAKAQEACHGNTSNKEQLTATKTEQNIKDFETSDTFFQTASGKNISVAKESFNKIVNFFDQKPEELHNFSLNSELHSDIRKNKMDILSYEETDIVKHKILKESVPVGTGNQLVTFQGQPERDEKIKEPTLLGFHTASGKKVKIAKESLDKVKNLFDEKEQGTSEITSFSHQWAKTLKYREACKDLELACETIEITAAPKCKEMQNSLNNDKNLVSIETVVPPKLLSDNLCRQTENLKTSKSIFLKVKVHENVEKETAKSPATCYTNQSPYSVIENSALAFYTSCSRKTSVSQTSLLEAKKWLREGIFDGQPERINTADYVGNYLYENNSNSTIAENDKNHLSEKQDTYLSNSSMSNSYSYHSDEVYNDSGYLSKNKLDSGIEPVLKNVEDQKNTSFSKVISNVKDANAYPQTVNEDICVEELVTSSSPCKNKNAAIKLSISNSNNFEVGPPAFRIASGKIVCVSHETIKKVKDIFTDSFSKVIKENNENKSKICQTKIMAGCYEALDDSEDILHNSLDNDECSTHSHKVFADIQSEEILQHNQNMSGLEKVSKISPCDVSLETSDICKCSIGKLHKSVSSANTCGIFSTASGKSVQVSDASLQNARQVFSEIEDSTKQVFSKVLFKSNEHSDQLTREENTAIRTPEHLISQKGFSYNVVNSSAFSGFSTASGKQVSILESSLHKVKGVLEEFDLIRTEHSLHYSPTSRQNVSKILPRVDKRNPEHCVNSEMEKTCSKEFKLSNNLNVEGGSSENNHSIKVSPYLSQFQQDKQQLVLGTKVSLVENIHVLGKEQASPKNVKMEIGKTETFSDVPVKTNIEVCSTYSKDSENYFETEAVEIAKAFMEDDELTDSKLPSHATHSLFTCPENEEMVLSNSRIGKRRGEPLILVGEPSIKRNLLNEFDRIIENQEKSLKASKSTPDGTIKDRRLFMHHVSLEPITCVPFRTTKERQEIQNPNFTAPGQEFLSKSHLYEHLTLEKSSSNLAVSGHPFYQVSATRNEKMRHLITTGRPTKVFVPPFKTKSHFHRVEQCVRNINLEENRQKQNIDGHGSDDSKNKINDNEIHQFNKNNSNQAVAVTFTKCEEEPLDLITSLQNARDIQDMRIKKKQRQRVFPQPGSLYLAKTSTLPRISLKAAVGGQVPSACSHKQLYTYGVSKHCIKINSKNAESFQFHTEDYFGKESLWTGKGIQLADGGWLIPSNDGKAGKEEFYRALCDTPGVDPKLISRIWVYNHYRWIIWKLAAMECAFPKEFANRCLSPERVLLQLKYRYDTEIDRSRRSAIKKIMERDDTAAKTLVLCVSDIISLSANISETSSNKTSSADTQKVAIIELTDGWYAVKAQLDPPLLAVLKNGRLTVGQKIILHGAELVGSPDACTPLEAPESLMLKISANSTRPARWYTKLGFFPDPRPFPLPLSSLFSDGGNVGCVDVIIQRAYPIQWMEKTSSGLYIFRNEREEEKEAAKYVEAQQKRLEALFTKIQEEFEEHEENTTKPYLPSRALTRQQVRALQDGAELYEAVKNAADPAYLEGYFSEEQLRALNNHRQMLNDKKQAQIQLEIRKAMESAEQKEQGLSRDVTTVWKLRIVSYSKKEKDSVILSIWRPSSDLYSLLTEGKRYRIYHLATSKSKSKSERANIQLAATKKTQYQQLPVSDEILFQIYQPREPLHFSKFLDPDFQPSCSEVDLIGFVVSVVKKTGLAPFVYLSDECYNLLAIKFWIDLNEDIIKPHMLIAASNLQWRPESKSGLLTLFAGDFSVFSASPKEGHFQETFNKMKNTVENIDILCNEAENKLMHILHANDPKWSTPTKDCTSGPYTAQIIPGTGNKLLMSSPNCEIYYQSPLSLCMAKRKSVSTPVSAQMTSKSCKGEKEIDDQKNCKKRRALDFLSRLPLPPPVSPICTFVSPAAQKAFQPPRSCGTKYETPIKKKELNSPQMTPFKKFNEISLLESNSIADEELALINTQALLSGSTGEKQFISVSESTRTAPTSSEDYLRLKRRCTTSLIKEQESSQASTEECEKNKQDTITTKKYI

Molecular target: T1, GFP-HSF2BP (mouse), in HEK293T cells (mouse) (UniProt Q9D4G2)
T1 sequence: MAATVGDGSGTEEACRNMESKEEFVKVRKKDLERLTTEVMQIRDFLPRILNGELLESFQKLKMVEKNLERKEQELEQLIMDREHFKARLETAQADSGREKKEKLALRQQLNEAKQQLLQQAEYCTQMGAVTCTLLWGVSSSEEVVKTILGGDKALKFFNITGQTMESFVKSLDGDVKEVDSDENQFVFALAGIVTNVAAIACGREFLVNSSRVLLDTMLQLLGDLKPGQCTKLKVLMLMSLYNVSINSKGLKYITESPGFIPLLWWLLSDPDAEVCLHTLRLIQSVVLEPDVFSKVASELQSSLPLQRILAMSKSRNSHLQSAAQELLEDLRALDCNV
Assay: co-IP

Substance: MBP-BRCA2 (human) (from UniProt P51587 1-3418)
- binding: binds
